According to patent US20220153852A1 (IBIO, published 2022):
Results are given in words; binding and its absence hold for the method and conditions named. Some entries that bind do so weakly or less than the wild type.

Amino acid sequences for entries named in this document (tags omitted). A change or cut given only in a name is not applied to a line headed by its entry. Chains listed by the source or under a name are the forms on record and can include a tag or linker.
recombinant cynomolgus monkey (cyno) CD25 (H6WS54, form named): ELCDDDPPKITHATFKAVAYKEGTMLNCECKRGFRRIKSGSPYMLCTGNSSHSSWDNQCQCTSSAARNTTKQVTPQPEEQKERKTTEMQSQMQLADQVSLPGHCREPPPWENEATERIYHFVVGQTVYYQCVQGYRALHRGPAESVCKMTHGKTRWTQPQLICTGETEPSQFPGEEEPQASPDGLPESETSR

T1: human CD25 (ELISA antigen) (human, UniProt P01589 22-213, limits assumed)
T1 construct: The ELISA protocol is described only for cyno CD25; the human antigen's construct is not described
T1 sequence (looked up): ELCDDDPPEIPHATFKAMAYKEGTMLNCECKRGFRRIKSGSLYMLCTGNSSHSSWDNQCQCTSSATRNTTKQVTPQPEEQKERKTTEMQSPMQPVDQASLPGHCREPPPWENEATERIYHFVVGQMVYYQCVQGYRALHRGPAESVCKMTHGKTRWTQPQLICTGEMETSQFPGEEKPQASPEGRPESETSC


What was measured:
Assay in all cases: ELISA
[1] = molecular target: T1, human CD25 (ELISA antigen)
[2] = molecular target: recombinant cynomolgus monkey (cyno) CD25 (cynomolgus monkey) (UniProt H6WS54)
[3] = molecular target: human CD25 (ELISA antigen) (human) (UniProt P01589)

Row | binding [1] | binding [2] | binding [3] | Binder
1 | binds | binds | – | hD11-H3-L2 (hD11-H3h-L2) (antibody, V domains shown) VH: QVQLVQSGAEVKKPGASLKISCKGSGYTFTDYAMHWVRQAPGQGLEWIGVISTYSGDAIYAQKFQGRATMTVDTSTSTAYLELSSLRSEDTAVYYCARGVTFDYWGQGTTVTVSS VL: DIQMTQSPSSLSASVGDRVTITCRASQDISNYLEWYQQKPGKAPKLLVYNAKTLAEGVPSRFSGSGSGTDFTLTISSLQPEDFGTYYCQHHYDTPYTFGQGTKLEIK
2 | – | binds | binds | hD11-H1-L2 (antibody, V domains shown, Humanized variant of D11 (parental clone carries human IgG1)) VH: QVQLVQSGAEVKKPGASVKVSCKASGYTFTDYAMHWVRQAPGQGLEWMGVISTYSGDAIYAQKFQGRVTMTRDTSTSTVYMELSSLRSEDTAVYYCARGVTFDYWGQGTTVTVSS VL: DIQMTQSPSSLSASVGDRVTITCRASQDISNYLEWYQQKPGKAPKLLVYNAKTLAEGVPSRFSGSGSGTDFTLTISSLQPEDFGTYYCQHHYDTPYTFGQGTKLEIK
